In PMC5620257:
Results are given in words; binding and its absence hold for the method and conditions named. Binding seen in cells or lysates may run through a third protein. Some results given as binding are weak or reduced against the parent protein; the word gives no strength.

The chains behind the UniProt entries cited, without tags or fusion partners. Residues count along the entry.
UniProt Q9NZQ7, residues 19-290: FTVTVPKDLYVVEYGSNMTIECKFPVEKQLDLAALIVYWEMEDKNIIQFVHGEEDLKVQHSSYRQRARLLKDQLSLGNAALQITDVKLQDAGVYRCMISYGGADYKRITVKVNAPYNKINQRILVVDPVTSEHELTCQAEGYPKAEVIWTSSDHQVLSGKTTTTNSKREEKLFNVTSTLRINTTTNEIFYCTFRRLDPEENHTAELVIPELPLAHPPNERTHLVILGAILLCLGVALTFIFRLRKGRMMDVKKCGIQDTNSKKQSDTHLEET

T1: FK506 binding protein 51 short (FKBP51s), spliced isoform 2 of FKBP51 (human (endogenous in D54)) (UniProt Q13451)
T1 sequence: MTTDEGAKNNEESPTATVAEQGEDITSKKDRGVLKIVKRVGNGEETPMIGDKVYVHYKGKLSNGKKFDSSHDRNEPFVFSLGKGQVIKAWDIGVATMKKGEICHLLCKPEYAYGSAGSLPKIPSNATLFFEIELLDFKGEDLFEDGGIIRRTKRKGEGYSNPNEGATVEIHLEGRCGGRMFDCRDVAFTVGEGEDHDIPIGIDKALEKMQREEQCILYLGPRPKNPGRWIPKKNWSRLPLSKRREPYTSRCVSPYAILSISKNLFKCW

B1: FK506 binding protein 51 short (FKBP51s), spliced isoform 2 of FKBP51 (protein, UniProt Q13451-2 1-268)
chain: T1 sequence

Columns and labels:
[1] = molecular target: T1, FK506 binding protein 51 short (FKBP51s), spliced isoform 2 of FKBP51 (human (endogenous in D54)); assay: co-IP; endogenous proteins of the ER fraction of D54 glioblastoma cells; lysate pre-cleared, 1 ug of anti-PD-L1 or anti-FKBP51s overnight at 4 °C, Protein A-Agarose 2 h at 4 °C, washed in modified RIPA buffer, immunoblot for each protein
[2] = molecular target: Programmed Death Ligand 1 (PD-L1) (human (endogenous in D54)) (UniProt Q9NZQ7); assay: as above

Molecule | binding [1] | binding [2]
Programmed Death Ligand 1 (PD-L1) (from UniProt Q9NZQ7 19-290) | binds | 
B1 |  | binds
